# The other results are listed elsewhere or left out. Construct or isoform of the protein are uncertain.
# Biological target: T1, ETV4 (UniProt P43268)
# T1 sequence: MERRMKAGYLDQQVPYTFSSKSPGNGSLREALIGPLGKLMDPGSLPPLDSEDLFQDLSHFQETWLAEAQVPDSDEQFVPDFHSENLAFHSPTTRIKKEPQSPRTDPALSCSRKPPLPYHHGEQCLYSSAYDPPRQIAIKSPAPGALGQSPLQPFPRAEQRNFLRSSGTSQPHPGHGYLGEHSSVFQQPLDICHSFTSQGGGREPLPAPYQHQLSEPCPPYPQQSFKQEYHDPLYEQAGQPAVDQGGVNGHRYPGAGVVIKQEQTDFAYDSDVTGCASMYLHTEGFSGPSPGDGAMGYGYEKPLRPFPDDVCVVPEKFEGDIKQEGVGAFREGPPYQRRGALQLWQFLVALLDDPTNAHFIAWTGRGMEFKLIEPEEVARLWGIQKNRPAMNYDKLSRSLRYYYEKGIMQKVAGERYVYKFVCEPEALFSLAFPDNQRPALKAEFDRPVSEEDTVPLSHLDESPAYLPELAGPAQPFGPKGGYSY
# Assay: DAPPL (digital affinity profiling via proximity ligation, sequencing)
# Details: 10 mM Tris-HCl pH 7.5, 50 mM NaCl, 1 mM DTT, 4% glycerol, room temperature, 30 min; GST-TFs on glutathione beads, 16-mer random dsDNA library, 0.1% …; high values mean tight binding; double strand, one strand shown; scale: fold enrichment (6-mer frequency, TF over GST control)
row,Sequence,binding signal
1,TCCCCC,1.55
2,AATATG,1.12
3,CAAGAT,0.954
4,ATACAC,1.32
5,TTTTCG,1.18
6,TGCAGC,1.1
7,TTCGCC,1.17
8,TCCAAA,1.14
9,CCATTA,1.11
10,TTAGGT,1.08
11,TCGTCT,1.41
12,AATCTT,1.33
13,TCTTTT,1.44
14,CATCTC,1.35
15,CACGAC,1.28
16,ATAACA,1.25
17,GGAAAA,1.13
18,CAATAG,1.06
19,ACTCTG,1.44
20,CTCTCC,1.42

# In a second layout: results already given
row	Sequence	binding signal
14	CATCTC	1.35
15	CACGAC	1.28

# Going on with the list:

row,Sequence,binding signal
1,CGAACT,1.08
2,ACCATT,1.14
3,CGTCCT,1.37
4,TACTGT,1.15
5,AACCCG,1.37
6,CTCAGT,1.23
7,TCAAGG,0.966
8,CAAACC,1.11
9,CGTTGC,1.06
10,CTTTCG,1.22
11,CCTTGT,1.22
12,ACTGTT,1.08
13,CTAGCA,1.34
14,ACTACG,1.27
15,TAAGAA,1.07
16,TATACG,1.27
17,TCCTAG,1.22
18,TATGCA,1.28
19,CTGTAC,1.36
20,ACGTCT,1.19

# — PMC7862700
